Laboratory results from PubChem BioAssay AID1645878 (National Center for Advancing Translational Sciences (NCATS), 2021).
The shares of active, inactive and inconclusive entries below differ from those in the screen. Where the call is inconclusive, the potency comes from a doubtful curve fit. Active and inactive are the calls of the source. Calls come from the whole dose curve; as a rule, active = well fitted inhibition curve with a large enough effect; inconclusive = small, poorly fitted or top-dose-only effect; inactive = no such curve, though single readings can be large or run the other way.

The chains behind the UniProt entries cited, without tags or fusion partners. Where a name states a change or a piece, a line headed by the entry shows the natural chain unless it says otherwise.
UniProt P40261: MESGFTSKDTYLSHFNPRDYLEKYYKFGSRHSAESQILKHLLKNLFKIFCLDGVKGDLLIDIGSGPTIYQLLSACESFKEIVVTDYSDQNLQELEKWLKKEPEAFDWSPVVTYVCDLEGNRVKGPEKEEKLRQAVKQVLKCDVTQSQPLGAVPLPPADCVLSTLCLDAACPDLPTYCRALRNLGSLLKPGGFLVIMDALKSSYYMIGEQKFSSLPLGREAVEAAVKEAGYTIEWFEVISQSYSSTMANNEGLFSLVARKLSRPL

Biological target: Nicotinamide N-methyltransferase (Homo sapiens) (UniProt P40261)
Assay: Counterscreen qHTS for Inhibitors of N-terminal methyltransferase 1 (NTMT1): NNMT MTaseGlo assay
Settings: NNMT MTase-Glo luminescence, SAH detection
Source text: Assay Submitter (PI): Rong Huang Ph.D. Purdue University, West Lafayette, IN 47907 The N-terminal methytransferase 1 is the first methyltransferase that methylates protein alpha-N-amines and plays an important role in regulating cell mitosis, chromatin interactions and DNA repair. It is observed to be over-expressed in various cancer patient tissues like malignant melanoma and colorectal cancer tissues. Knockdown of NTMT1 in cancer cells causes cell mitotic defects and enhances sensitivity to DNA damaging chemotherapeutics. […] These critical cellular processes in which NTMT1 is implicated, coupled with emerging links to cellular dysfunction, strengthen the inference that NTMT1 is a compelling novel anticancer target. […] To address this unmet need, a panel of assay is created and established to enable quantitative high-throughput screening (qHTS) for novel, potent, and selective small molecule NTMT1 inhibitors. […] MTaseGlo Assay is a luminescence screen that measure the activity of methyltransferases based on the reaction product S-adenosyl homocysteine (SAH). […]
Materials: NNMT enzyme, SAM, NA, and control is provided by the Huang laboratory. […] 11; Detection; Luminescence; Plates were read using luminescence optics on a ViewLux detector (PerkinElmer). […]

Structure (SMILES)	Potency
C[C@H]1CCC[C@H](O)CCC/C=C/c2cc(O)cc(O)c2C(=O)O1	active: 3.55 µM
CC1CCCC(=O)CCC/C=C/c2cc(O)cc(O)c2C(=O)O1 (configuration not stated)	inconclusive: 28.2 µM [inhibitor, partial curve]
